Measurements reported in article PMC11315909.
These are yes or no findings as the source states them, for the method shown. Binding seen in cells or lysates may run through a third protein. Some binding calls cover weakened binding; strength is not graded here. For some assays here: Where a sequence is shown, tags or fusion partners need not be part of it. One block for each binder: values may come before it.

Chains of the proteins cited; added tags and fusions are not shown.
UniProt O75151: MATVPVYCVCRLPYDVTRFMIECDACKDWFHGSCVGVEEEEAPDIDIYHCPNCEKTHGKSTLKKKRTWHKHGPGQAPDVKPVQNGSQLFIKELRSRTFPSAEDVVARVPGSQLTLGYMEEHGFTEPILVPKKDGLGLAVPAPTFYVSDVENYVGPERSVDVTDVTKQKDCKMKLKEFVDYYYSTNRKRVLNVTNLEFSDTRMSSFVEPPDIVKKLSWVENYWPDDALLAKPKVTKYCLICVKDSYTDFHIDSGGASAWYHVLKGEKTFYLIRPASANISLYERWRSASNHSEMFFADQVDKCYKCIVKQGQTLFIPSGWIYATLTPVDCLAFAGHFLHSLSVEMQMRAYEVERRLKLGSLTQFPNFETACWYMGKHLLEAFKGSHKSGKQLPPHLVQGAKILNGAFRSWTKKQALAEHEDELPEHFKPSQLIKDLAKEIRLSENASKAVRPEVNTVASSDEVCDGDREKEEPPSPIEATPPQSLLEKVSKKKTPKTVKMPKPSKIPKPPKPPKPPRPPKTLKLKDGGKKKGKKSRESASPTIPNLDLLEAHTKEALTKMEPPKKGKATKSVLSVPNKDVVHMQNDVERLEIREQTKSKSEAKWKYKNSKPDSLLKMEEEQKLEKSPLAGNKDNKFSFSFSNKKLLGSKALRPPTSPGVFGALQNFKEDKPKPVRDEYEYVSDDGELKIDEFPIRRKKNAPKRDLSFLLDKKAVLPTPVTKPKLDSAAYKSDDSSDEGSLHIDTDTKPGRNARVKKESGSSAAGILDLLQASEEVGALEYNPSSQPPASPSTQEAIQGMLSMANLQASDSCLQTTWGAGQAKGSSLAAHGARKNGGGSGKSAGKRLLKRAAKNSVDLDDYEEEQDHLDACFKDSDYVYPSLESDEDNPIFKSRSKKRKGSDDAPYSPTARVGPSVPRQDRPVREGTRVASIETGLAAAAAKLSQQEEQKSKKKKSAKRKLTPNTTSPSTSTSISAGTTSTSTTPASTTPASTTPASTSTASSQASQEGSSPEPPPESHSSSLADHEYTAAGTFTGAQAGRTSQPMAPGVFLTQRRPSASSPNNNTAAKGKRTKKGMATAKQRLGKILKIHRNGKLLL

How the values were obtained:
[1] = target: PHF2 (overexpressed in HEK293T) (human) (UniProt O75151); assay: co-IP; CoIP of PHF2 and SUV39H1 (Appendix Fig. S1B); cells, constructs and antibodies not shown
[2] = target: PHF2 (overexpressed in HEK293T) (human) (UniProt O75151); assay: co-IP; HEK293T transfected with PHF2 and HP1BP3-HA vectors; IPH buffer (50 mM Tris-HCl pH 7.5, 150 mM NaCl, 5 mM EDTA, 0.5% NP-40); PHF2 immunoprecipitated with PHF2 antibody overnight at 4 °C, immunoblot with HA antibody; IgGs as negative control

binding [1]: binds
B1: SUV39H1 (protein, UniProt O43463 1-412)
chain: MAENLKGCSVCCKSSWNQLQDLCRLAKLSCPALGISKRNLYDFEVEYLCDYKKIREQEYYLVKWRGYPDSESTWEPRQNLKCVRILKQFHKDLERELLRRHHRSKTPRHLDPSLANYLVQKAKQRRALRRWEQELNAKRSHLGRITVENEVDLDGPPRAFVYINEYRVGEGITLNQVAVGCECQDCLWAPTGGCCPGASLHKFAYNDQGQVRLRAGLPIYECNSRCRCGYDCPNRVVQKGIRYDLCIFRTDDGRGWGVRTLEKIRKNSFVMEYVGEIITSEEAERRGQIYDRQGATYLFDLDYVEDVYTVDAAYYGNISHFVNHSCDPNLQVYNVFIDNLDERLPRIAFFATRTIRAGEELTFDYNMQVDPVDMESTRMDSNFGLAGLPGSPKKRVRIECKCGTESCRKYLF

binding [2]: binds
B2: HP1BP3-HA (protein, UniProt Q5SSJ5 1-553)
chain: MATDTSQGELVHPKALPLIVGAQLIHADKLGEKVEDSTMPIRRTVNSTRETPPKSKLAEGEEEKPEPDISSEESVSTVEEQENETPPATSSEAEQPKGEPENEEKEENKSSEETKKDEKDQSKEKEKKVKKTIPSWATLSASQLARAQKQTPMASSPRPKMDAILTEAIKACFQKSGASVVAIRKYIIHKYPSLELERRGYLLKQALKRELNRGVIKQVKGKGASGSFVVVQKSRKTPQKSRNRKNRSSAVDPEPQVKLEDVLPLAFTRLCEPKEASYSLIRKYVSQYYPKLRVDIRPQLLKNALQRAVERGQLEQITGKGASGTFQLKKSGEKPLLGGSLMEYAILSAIAAMNEPKTCSTTALKKYVLENHPGTNSNYQMHLLKKTLQKCEKNGWMEQISGKGFSGTFQLCFPYYPSPGVLFPKKEPDDSRDEDEDEDESSEEDSEDEEPPPKRRLQKKTPAKSPGKAASVKQRGSKPAPKVSAAQRGKARPLPKKAPPKAKTPAKKTRPSSTVIKKPSGGSSKKPATSARKEVKLPGKGKSTMKKSFRVKK
